# Measured values: the supplement of paper PMC8728848
# This is one part of the list.
# Experiments:
# Experiment in all cases: glycan array binding signal (z-score within array); higher = stronger binding
# Settings in all cases: glycan notation: IUPAC condensed, linker removed
# Gal3S(b1-4)Glc = molecular target: Gal3S(b1-4)Glc
# Outline: (§1)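 The Consortium for Functional Glycomics database supplied 3228 glycan arrays, of which those lacking an available protein sequence were dropped. The binding signal, a within-array Z-score, was averaged across arrays of the same protein sequence and across linkers. Negative scores can be read as non-binding.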
# Gal3S(b1-4)Glc6S = molecular target: Gal3S(b1-4)Glc6S
# Outline: as §1
# Gal3S(b1-4)GlcNAc = molecular target: Gal3S(b1-4)GlcNAc
# Outline: as §1
# [1] = molecular target: Gal3S(b1-4)[Fuc(a1-3)]Glc6S
# Outline: as §1
# [2] = molecular target: Gal3S(b1-4)[Fuc(a1-3)]GlcNAc
# Outline: as §1
# [3] = molecular target: Gal3S(b1-4)[Fuc(a1-3)]GlcNAc6S
# Outline: as §1
# Gal3S4S(b1-4)GlcNAc = molecular target: Gal3S4S(b1-4)GlcNAc
# Outline: as §1
# Gal3S6S(b1-4)GlcNAc = molecular target: Gal3S6S(b1-4)GlcNAc
# Outline: as §1
# Gal3S6S(b1-4)GlcNAc6S = molecular target: Gal3S6S(b1-4)GlcNAc6S
# Outline: as §1
# Gal4S(b1-4)GlcNAc = molecular target: Gal4S(b1-4)GlcNAc
# Outline: as §1
# Gal4S6S(b1-4)GlcNAc = molecular target: Gal4S6S(b1-4)GlcNAc
# Outline: as §1
# Gal6P(b1-4)GlcNAc = molecular target: Gal6P(b1-4)GlcNAc
# Outline: as §1
# Gal6S(b1-3)GlcNAc = molecular target: Gal6S(b1-3)GlcNAc
# Outline: as §1
# Gal6S(b1-3)GlcNAc6S = molecular target: Gal6S(b1-3)GlcNAc6S
# Outline: as §1
# Gal6S(b1-4)Glc = molecular target: Gal6S(b1-4)Glc
# Outline: as §1
# Gal6S(b1-4)Glc6S = molecular target: Gal6S(b1-4)Glc6S
# Outline: as §1
# Gal6S(b1-4)GlcNAc = molecular target: Gal6S(b1-4)GlcNAc
# Outline: as §1
# Gal6S(b1-4)GlcNAc6S = molecular target: Gal6S(b1-4)GlcNAc6S
# Outline: as §1
# GalNAc(a1-3)Gal = molecular target: GalNAc(a1-3)Gal
# Outline: as §1
# GalNAc(a1-3)GalNAc = molecular target: GalNAc(a1-3)GalNAc
# Outline: as §1
# [4] = molecular target: GalNAc(a1-3)GalNAc(b1-3)Gal(a1-4)Gal(b1-4)Glc
# Outline: as §1
# [5] = molecular target: GalNAc(a1-3)GalNAc(b1-3)Gal(a1-4)Gal(b1-4)GlcNAc
# Outline: as §1
# GalNAc(b1-3)Gal = molecular target: GalNAc(b1-3)Gal
# Outline: as §1
# [6] = molecular target: GalNAc(b1-3)Gal(a1-4)Gal(b1-4)GlcNAc
# Outline: as §1
# [7] = molecular target: GalNAc(b1-3)Gal(a1-4)Gal(b1-4)GlcNAc(b1-3)Gal(b1-4)Glc
# Outline: as §1
# [8] = molecular target: GalNAc(b1-3)Gal(a1-6)Gal(b1-4)Glc
# Outline: as §1
# GalNAc(b1-3)GalNAc = molecular target: GalNAc(b1-3)GalNAc
# Outline: as §1
# GalNAc(b1-3)GlcNAc = molecular target: GalNAc(b1-3)GlcNAc
# Outline: as §1
# GalNAc(b1-4)Gal(b1-4)Glc = molecular target: GalNAc(b1-4)Gal(b1-4)Glc
# Outline: as §1
# GalNAc(b1-4)GlcNAc = molecular target: GalNAc(b1-4)GlcNAc
# Outline: as §1
# [9] = molecular target: GalNAc(b1-4)GlcNAc(b1-2)Man
# Outline: as §1
# [10] = molecular target: GalNAc(b1-4)GlcNAc(b1-2)Man(a1-3)[GalNAc(b1-4)GlcNAc(b1-2)Man(a1-6)]Man(b1-4)GlcNAc(b1-4)GlcNAc
# Outline: as §1
# [11] = molecular target: GalNAc(b1-4)GlcNAc(b1-3)GalNAc(b1-4)GlcNAc
# Outline: as §1
# GalNAc(b1-4)GlcNAc6S = molecular target: GalNAc(b1-4)GlcNAc6S
# Outline: as §1
# GalNAc(b1-6)GalNAc = molecular target: GalNAc(b1-6)GalNAc
# Outline: as §1
# GalNAc3S(b1-4)GlcNAc = molecular target: GalNAc3S(b1-4)GlcNAc
# Outline: as §1
# GalNAc3S(b1-4)GlcNAc3S = molecular target: GalNAc3S(b1-4)GlcNAc3S
# Outline: as §1
binder,measurement,setting,value
PX14343I-pdi-501-30-501 (Parabacteroides distasonis) (protein) SDQYSTETFWKTKEHASAGIMGCYNALKLWRSLHTMEFDMLTANAMPYNEANGTQAIGKGEHLSTTALIGSLWKNCYVGIGRTNTFIANVGGVDMDESEKAKMVGEAKFLRAFYYLSLVDKFGGVPLIIDAPNADEQAELPRNSKEEVVNQIVKDLEEAAAVLPDTYASSDLGRATKGAALALKARTLLYNSRWAEAAQAAKQVMESGVYQLFNDYRHFFSEDNKYNCEVIFDIEAKLPEYPTDYDQNIWRLNRPAPLKELVDTYLCVDGKTIEESPLYDPTRPYENRDPRLLKSIVCIGYPYLGKTITKEDVATTGFGVKKYTSYEDDVTIPLVERSAFNFILIRYAEVLLTYAEAQNEASGPDQSVYDAINQLRRRPDINMPEVPKGLTKDQMREVIRRERRIELTFEGLYYSDILRWKTAEKENNGMMHNYEGIEVVKRSFNPKRDYLWPIPYNQTVLNPNLEQNPNWD,glycan array binding signal (z-score),Gal3S(b1-4)Glc,0.301
same,glycan array binding signal (z-score),Gal3S(b1-4)Glc6S,-0.187
same,glycan array binding signal (z-score),Gal3S(b1-4)GlcNAc,-0.259
same,glycan array binding signal (z-score),[1],0.785
same,glycan array binding signal (z-score),[2],0.833
same,glycan array binding signal (z-score),[3],1.18
same,glycan array binding signal (z-score),Gal3S4S(b1-4)GlcNAc,0.784
same,glycan array binding signal (z-score),Gal3S6S(b1-4)GlcNAc,0.636
same,glycan array binding signal (z-score),Gal3S6S(b1-4)GlcNAc6S,1.05
same,glycan array binding signal (z-score),Gal4S(b1-4)GlcNAc,-0.724
same,glycan array binding signal (z-score),Gal4S6S(b1-4)GlcNAc,0.386
same,glycan array binding signal (z-score),Gal6P(b1-4)GlcNAc,-0.19
same,glycan array binding signal (z-score),Gal6S(b1-3)GlcNAc,0.19
same,glycan array binding signal (z-score),Gal6S(b1-3)GlcNAc6S,0.179
same,glycan array binding signal (z-score),Gal6S(b1-4)Glc,0.085
same,glycan array binding signal (z-score),Gal6S(b1-4)Glc6S,-0.321
same,glycan array binding signal (z-score),Gal6S(b1-4)GlcNAc,0.216
same,glycan array binding signal (z-score),Gal6S(b1-4)GlcNAc6S,-0.366
same,glycan array binding signal (z-score),GalNAc(a1-3)Gal,-0.903
same,glycan array binding signal (z-score),GalNAc(a1-3)GalNAc,-1.17
same,glycan array binding signal (z-score),[4],0.12
same,glycan array binding signal (z-score),[5],-0.071
same,glycan array binding signal (z-score),GalNAc(b1-3)Gal,-0.105
same,glycan array binding signal (z-score),[6],-0.047
same,glycan array binding signal (z-score),[7],0.203
same,glycan array binding signal (z-score),[8],-0.869
same,glycan array binding signal (z-score),GalNAc(b1-3)GalNAc,1.96
same,glycan array binding signal (z-score),GalNAc(b1-3)GlcNAc,0.842
same,glycan array binding signal (z-score),GalNAc(b1-4)Gal(b1-4)Glc,0.548
same,glycan array binding signal (z-score),GalNAc(b1-4)GlcNAc,-0.264
same,glycan array binding signal (z-score),[9],-0.071
same,glycan array binding signal (z-score),[10],-0.398
same,glycan array binding signal (z-score),[11],-0.425
same,glycan array binding signal (z-score),GalNAc(b1-4)GlcNAc6S,-0.372
same,glycan array binding signal (z-score),GalNAc(b1-6)GalNAc,-0.155
same,glycan array binding signal (z-score),GalNAc3S(b1-4)GlcNAc,0.257
same,glycan array binding signal (z-score),GalNAc3S(b1-4)GlcNAc3S,-0.18

# Exported with bars between the fields: entries from further up.
binder | measurement | setting | value
PX14343I-pdi-501-30-501 (Parabacteroides distasonis) (protein) SDQYSTETFWKTKEHASAGIMGCYNALKLWRSLHTMEFDMLTANAMPYNEANGTQAIGKGEHLSTTALIGSLWKNCYVGIGRTNTFIANVGGVDMDESEKAKMVGEAKFLRAFYYLSLVDKFGGVPLIIDAPNADEQAELPRNSKEEVVNQIVKDLEEAAAVLPDTYASSDLGRATKGAALALKARTLLYNSRWAEAAQAAKQVMESGVYQLFNDYRHFFSEDNKYNCEVIFDIEAKLPEYPTDYDQNIWRLNRPAPLKELVDTYLCVDGKTIEESPLYDPTRPYENRDPRLLKSIVCIGYPYLGKTITKEDVATTGFGVKKYTSYEDDVTIPLVERSAFNFILIRYAEVLLTYAEAQNEASGPDQSVYDAINQLRRRPDINMPEVPKGLTKDQMREVIRRERRIELTFEGLYYSDILRWKTAEKENNGMMHNYEGIEVVKRSFNPKRDYLWPIPYNQTVLNPNLEQNPNWD | glycan array binding signal (z-score) | Gal6S(b1-3)GlcNAc | 0.19
same | glycan array binding signal (z-score) | Gal6S(b1-3)GlcNAc6S | 0.179
